This passage reports IC50 results from publication PMC6021032, “Antimycobacterial activity of nitrogen heterocycles derivatives: 7-(pyridine-4-yl)-indolizine derivatives. Part VII^8–12” (Journal of Enzyme Inhibition and Medicinal Chemistry, 2017).

This data set can be described thus: Cytotoxicity, THP-1 cell viability (CellTiter-Glo). The note with it: human.

For the compound `CN[C@@H]1C[C@H]2O[C@@](C)([C@@H]1OC)n1c3ccccc3c3c4c(c5c6ccccc6n2c5c31)C(=O)NC4` [Staurosporine, reference compound], half-maximal inhibition (IC50 at 3 days) required 20 nM.
